In the supplement of paper PMC6078165:
± gives the standard deviation of the averaged measurements. The reference is the same well before dosing, and untreated signal decays as well.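 Fibroblast labels denote human fibroblasts, mainly primary ones from uterus (C12385, HUF), lung (H6013), bone (Hs27A), adrenal (HADF) and skin (WS1), plus mammary HMF and breast cancer-associated Hs343T. Cancer cells are basal-like or mesenchymal-like triple-negative breast cancer lines. A hit is a response shift exceeding 3x replicate standard deviation. The tissue of the other fibroblasts is not given here.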

System: MDAMB231
Assay: relative JC-1 red fluorescence (viability) vs pre-drug, coculture with fibroblast (fraction); higher = more viable cancer cells
Procedure: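 JC-1 labelled TNBC cells cocultured 1:1 (1,500 cells each) with CellTrace Violet stained primary or stromal fibroblasts in 384-well plates in FluoroBrite medium, treated with one of 42 anticancer drugs at 0.1, 1, 10 or 100 uM. JC-1 red fluorescence (mitochondrial integrity in cancer cells only) was read by plate reader every 8 h for 72 h. Values are normalised to each well's pre-drug value. The stock of one drug was tenfold lower, so its dose labels may be too high.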

C=C1C[C@@H]2[C@H](CC[C@]3(C)C(=O)CC[C@@H]23)[C@@]2(C)C=CC(=O)C=C12 [Exemestane]
relative JC-1 red fluorescence
Conditions | 8 h | 16 h | 24 h | 32 h | 40 h | 48 h | 56 h | 64 h | 72 h
10 µM, coculture fibroblast: C12385 | 0.795 ± 0.014 | 0.778 ± 0.014 | 0.713 ± 0.057 | 0.721 ± 0.018 | 0.681 ± 0.033 | 0.665 ± 0.034 | 0.624 ± 0.035 | 0.603 ± 0.042 | 0.573 ± 0.036
10 µM, coculture fibroblast: H6013 | 0.903 ± 0.013 | 0.888 ± 0.022 | 0.876 ± 0.015 | 0.88 ± 0.022 | 0.856 ± 0.033 | 0.829 ± 0.015 | 0.827 ± 0.019 | 0.797 ± 0.029 | 0.77 ± 0.029
10 µM, coculture fibroblast: H6019 | 0.808 ± 0.026 | 0.762 ± 0.063 | 0.704 ± 0.015 | 0.695 ± 0.038 | 0.648 ± 0.019 | 0.636 ± 0.029 | 0.594 ± 0.02 | 0.585 ± 0.012 | 0.54 ± 0.0069
10 µM, coculture fibroblast: H6076 | 0.929 ± 0.0098 | 0.861 ± 0.022 | 0.839 ± 0.035 | 0.841 ± 0.053 | 0.819 ± 0.059 | 0.807 ± 0.056 | 0.786 ± 0.056 | 0.764 ± 0.061 | 0.757 ± 0.052
10 µM, coculture fibroblast: H6231 | 0.865 ± 0.093 | 0.876 ± 0.041 | 0.804 ± 0.052 | 0.757 ± 0.047 | 0.709 ± 0.049 | 0.672 ± 0.053 | 0.611 ± 0.041 | 0.574 ± 0.048 | 0.526 ± 0.039
10 µM, coculture fibroblast: HADF | 0.8968 ± 0.0057 | 0.865 ± 0.018 | 0.837 ± 0.013 | 0.8131 ± 0.0018 | 0.7867 ± 0.0012 | 0.733 ± 0.013 | 0.725 ± 0.012 | 0.71 ± 0.032 | 0.658 ± 0.026
10 µM, coculture fibroblast: HCFa | 0.912 ± 0.013 | 0.855 ± 0.013 | 0.838 ± 0.014 | 0.832 ± 0.016 | 0.7875 ± 0.0059 | 0.755 ± 0.013 | 0.736 ± 0.0095 | 0.705 ± 0.018 | 0.662 ± 0.028
10 µM, coculture fibroblast: HCPF | 0.925 ± 0.035 | 0.847 ± 0.028 | 0.79 ± 0.022 | 0.773 ± 0.016 | 0.7195 ± 0.0065 | 0.6822 ± 0.0033 | 0.644 ± 0.015 | 0.61 ± 0.02 | 0.575 ± 0.025
10 µM, coculture fibroblast: HHSteC | 0.9337 ± 0.0025 | 0.899 ± 0.013 | 0.8616 ± 0.0052 | 0.823 ± 0.0089 | 0.784 ± 0.0089 | 0.7562 ± 0.002 | 0.7164 ± 0.0019 | 0.6837 ± 0.0014 | 0.6343 ± 0.0014
10 µM, coculture fibroblast: HMF | 0.964 ± 0.014 | 0.9 ± 0.013 | 0.8472 ± 0.0048 | 0.818 ± 0.011 | 0.775 ± 0.028 | 0.733 ± 0.039 | 0.686 ± 0.051 | 0.648 ± 0.054 | 0.613 ± 0.071
10 µM, coculture fibroblast: HPFa | 0.9699 ± 0.0096 | 0.9454 ± 0.0064 | 0.906 ± 0.015 | 0.894 ± 0.018 | 0.867 ± 0.044 | 0.818 ± 0.025 | 0.77 ± 0.018 | 0.729 ± 0.046 | 0.667 ± 0.026
10 µM, coculture fibroblast: HUF | 0.881 ± 0.017 | 0.799 ± 0.019 | 0.8129 ± 0.005 | 0.7064 ± 0.0012 | 0.6384 ± 0.00073 | 0.624 ± 0.015 | 0.562 ± 0.014 | 0.553 ± 0.024 | 0.521 ± 0.027
10 µM, coculture fibroblast: Hs5 | 0.912 ± 0.061 | 0.861 ± 0.05 | 0.849 ± 0.051 | 0.834 ± 0.034 | 0.805 ± 0.0092 | 0.77 ± 0.013 | 0.7279 ± 0.0043 | 0.7043 ± 0.0044 | 0.673 ± 0.024
10 µM, coculture fibroblast: Hs27A | 0.915 ± 0.0059 | 0.8817 ± 0.0049 | 0.849 ± 0.0088 | 0.83 ± 0.032 | 0.789 ± 0.038 | 0.72 ± 0.061 | 0.725 ± 0.048 | 0.706 ± 0.057 | 0.644 ± 0.053
10 µM, coculture fibroblast: Hs343T | 0.961 ± 0.014 | 0.88 ± 0.015 | 0.813 ± 0.018 | 0.788 ± 0.031 | 0.73 ± 0.047 | 0.692 ± 0.061 | 0.642 ± 0.091 | 0.6 ± 0.1 | 0.555 ± 0.11
10 µM, coculture fibroblast: WS1 | 0.807 ± 0.035 | 0.754 ± 0.047 | 0.767 ± 0.1 | 0.732 ± 0.098 | 0.711 ± 0.11 | 0.703 ± 0.1 | 0.662 ± 0.12 | 0.65 ± 0.14 | 0.62 ± 0.15
100 µM, coculture fibroblast: C12385 | 0.7973 ± 0.0016 | 0.81 ± 0.029 | 0.753 ± 0.081 | 0.79 ± 0.074 | 0.763 ± 0.045 | 0.751 ± 0.054 | 0.728 ± 0.051 | 0.726 ± 0.051 | 0.7 ± 0.07
100 µM, coculture fibroblast: H6013 | 0.936 ± 0.011 | 0.901 ± 0.032 | 0.888 ± 0.053 | 0.902 ± 0.054 | 0.838 ± 0.078 | 0.805 ± 0.078 | 0.796 ± 0.11 | 0.786 ± 0.11 | 0.752 ± 0.12
100 µM, coculture fibroblast: H6019 | 0.804 ± 0.0089 | 0.7951 ± 0.0052 | 0.7137 ± 0.0059 | 0.74 ± 0.017 | 0.709 ± 0.025 | 0.697 ± 0.027 | 0.664 ± 0.014 | 0.635 ± 0.0073 | 0.612 ± 0.029
100 µM, coculture fibroblast: H6076 | 0.928 ± 0.026 | 0.863 ± 0.022 | 0.8638 ± 0.0013 | 0.8648 ± 0.0028 | 0.8478 ± 0.0033 | 0.82676 ± 6.9e-05 | 0.83 ± 0.017 | 0.82 ± 0.024 | 0.819 ± 0.038
100 µM, coculture fibroblast: H6231 | 0.923 ± 0.041 | 0.87 ± 0.039 | 0.831 ± 0.03 | 0.797 ± 0.037 | 0.756 ± 0.032 | 0.739 ± 0.03 | 0.721 ± 0.013 | 0.687 ± 0.0073 | 0.6475 ± 0.0017
100 µM, coculture fibroblast: HADF | 0.911 ± 0.011 | 0.8951 ± 0.0049 | 0.8739 ± 0.0051 | 0.859 ± 0.0096 | 0.826 ± 0.016 | 0.764 ± 0.022 | 0.741 ± 0.0082 | 0.7123 ± 0.0071 | 0.645 ± 0.033
100 µM, coculture fibroblast: HCFa | 0.934 ± 0.016 | 0.915 ± 0.015 | 0.89004 ± 1.1e-05 | 0.8548 ± 0.0016 | 0.811 ± 0.012 | 0.7535 ± 0.0026 | 0.716 ± 0.0082 | 0.681 ± 0.027 | 0.609 ± 0.044
100 µM, coculture fibroblast: HCPF | 0.9349 ± 0.0059 | 0.867 ± 0.018 | 0.844 ± 0.035 | 0.85 ± 0.04 | 0.807 ± 0.045 | 0.785 ± 0.061 | 0.759 ± 0.056 | 0.726 ± 0.056 | 0.713 ± 0.053
100 µM, coculture fibroblast: HHSteC | 0.9374 ± 0.0038 | 0.942 ± 0.015 | 0.915 ± 0.012 | 0.8978 ± 0.0038 | 0.868 ± 0.02 | 0.849 ± 0.013 | 0.819 ± 0.054 | 0.804 ± 0.054 | 0.756 ± 0.079
100 µM, coculture fibroblast: HMF | 0.9045 ± 0.0075 | 0.836 ± 0.012 | 0.815 ± 0.029 | 0.804 ± 0.041 | 0.786 ± 0.057 | 0.762 ± 0.059 | 0.745 ± 0.061 | 0.729 ± 0.068 | 0.724 ± 0.072
100 µM, coculture fibroblast: HPFa | 0.961 ± 0.013 | 0.95 ± 0.027 | 0.928 ± 0.036 | 0.903 ± 0.039 | 0.882 ± 0.042 | 0.854 ± 0.041 | 0.812 ± 0.043 | 0.794 ± 0.064 | 0.749 ± 0.063
100 µM, coculture fibroblast: HUF | 0.8753 ± 0.0064 | 0.7871 ± 0.0075 | 0.8387 ± 0.0035 | 0.7711 ± 0.00093 | 0.746 ± 0.013 | 0.755 ± 0.028 | 0.722 ± 0.043 | 0.717 ± 0.048 | 0.707 ± 0.029
100 µM, coculture fibroblast: Hs5 | 0.899 ± 0.012 | 0.849 ± 0.032 | 0.834 ± 0.04 | 0.815 ± 0.031 | 0.781 ± 0.034 | 0.745 ± 0.04 | 0.726 ± 0.035 | 0.696 ± 0.043 | 0.687 ± 0.038
100 µM, coculture fibroblast: Hs27A | 0.93 ± 0.014 | 0.909 ± 0.011 | 0.894 ± 0.016 | 0.8735 ± 0.0084 | 0.823 ± 0.009 | 0.732 ± 0.019 | 0.777 ± 0.029 | 0.757 ± 0.05 | 0.714 ± 0.036
100 µM, coculture fibroblast: Hs343T | 0.9247 ± 0.0065 | 0.8496 ± 0.0059 | 0.8319 ± 0.0067 | 0.8207 ± 0.0063 | 0.7926 ± 0.0016 | 0.769 ± 0.012 | 0.7433 ± 0.0039 | 0.734 ± 0.011 | 0.716 ± 0.032
100 µM, coculture fibroblast: WS1 | 0.777 ± 0.018 | 0.774 ± 0.014 | 0.691 ± 0.009 | 0.736 ± 0.025 | 0.724 ± 0.016 | 0.704 ± 0.015 | 0.671 ± 0.03 | 0.642 ± 0.027 | 0.625 ± 0.016
